According to PMC7105294:
No constants are given. Whether binding was seen depends on the method and setting. Some entries that bind do so weakly or less than the wild type.

Protein sequences, listed by entry. Tags and fused reporters are not part of them. Residues count along the entry.
UniProt P03211, residues 441-619: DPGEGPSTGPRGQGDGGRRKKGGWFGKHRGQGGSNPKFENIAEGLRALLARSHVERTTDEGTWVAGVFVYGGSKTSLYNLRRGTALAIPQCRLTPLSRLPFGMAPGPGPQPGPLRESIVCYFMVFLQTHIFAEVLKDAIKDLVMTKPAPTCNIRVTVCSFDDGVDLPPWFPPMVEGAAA
UniProt P61956: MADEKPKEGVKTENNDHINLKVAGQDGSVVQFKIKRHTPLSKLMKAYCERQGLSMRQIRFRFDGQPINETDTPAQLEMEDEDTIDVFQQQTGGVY

Target: GST-fusion wild type EBNA1 DBD (441-619) (Epstein-Barr virus) (UniProt P03211)
Experiment: pull-down; purified His-SUMO1/2 incubated with GST-fusion EBNA1 DBD proteins purified from E. coli, pulled down with Glutathione-sepharose beads; immunoblot; both purified

With “His-SUMO2 recombinant protein (from UniProt P61956 1-95)” the binding was “binds”.
